This is one part of the list.

Amino acid sequences for entries named in this document (tags omitted).
UniProt Q0JBA9, entry or part of it: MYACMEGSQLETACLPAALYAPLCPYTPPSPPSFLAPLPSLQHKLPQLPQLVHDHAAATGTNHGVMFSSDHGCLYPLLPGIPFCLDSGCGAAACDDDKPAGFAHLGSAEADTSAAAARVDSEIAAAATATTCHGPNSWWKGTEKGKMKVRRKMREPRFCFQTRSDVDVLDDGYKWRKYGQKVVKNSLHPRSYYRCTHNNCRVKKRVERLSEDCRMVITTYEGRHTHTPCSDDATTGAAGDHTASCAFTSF

This assay deals with OsWRKY34 (Oryza sativa, UniProt Q0JBA9 1-250). The experiment in a line: protein-binding microarray (RPBM); PBS, 2% BSA, 51.3 ng/ul salmon testes DNA, 50 uM zinc acetate, 200 nM TF, 25 C, 1 h; high values mean tight binding. Conditions: protein: recombinant; tags: N-terminal polyhistidine and DsRed monomer fusion (pET32a); label: CyDye5-dUTP incorporated in the synthesized complementary strand; 3' TTTTT single-stranded linker to array surface; dsDNA, one strand shown. In a few lines:
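For the binding signal, per-feature fluorescence intensity was read in arbitrary units on an Axon 4000B scanner. Before scanning, a 2% BSA-blocked custom Agilent array made double-stranded with Cy5-dUTP was washed after 1 h at 25 °C with 200 nM protein and 50 µM zinc acetate. The proteins were Ni–NTA-purified transcription factors with N-terminal polyhistidine and DsRed fusions, expressed in E. coli BL21-CodonPlus.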
Take “AGAGCTTTTCTTAGACCCATTTTTTGCACTCTTTAAAGATCGGAGTCACCTAGTGCAG”: the binding signal is 8670 fluorescence intensity (a.u.).
The figure for “ACGATCTGACTCAGATAACTGACACGCTGCTCTCAATCGCCGGAGTCACCTAGTGCAG” is 8180 fluorescence intensity (a.u.).
Take “AACCACAGTAGCTCACAGGCCATTATCCTGTCAGTACTTACGGAGTCACCTAGTGCAG”: the binding signal is 8220 fluorescence intensity (a.u.).
The figure for “GGGTTCTTTGTTCTTGTAGTGGTAGTAGCCACTTGCTTGACGGAGTCACCTAGTGCAG” is 11400 fluorescence intensity (a.u.).
The value for “ACCTCATCATTTTCCATCGCTCCCATCCGCGTCGCTCCCGCGGAGTCACCTAGTGCAG” was 10300 fluorescence intensity (a.u.); that for “GTCAGCGGGCAGGTAAGCATCCCCGACATCGATGTCGATCCGGAGTCACCTAGTGCAG” was 8790 fluorescence intensity (a.u.); that for “CACTGCCACTCGCCACCCAGCTCCGTCCTATGCCTCCGCGCGGAGTCACCTAGTGCAG” was 12400 fluorescence intensity (a.u.).
The figure for “TCAGTGATAGAGTCGGAGCAATGTTGGTCTCATTTTCGTTCGGAGTCACCTAGTGCAG” is 8140 fluorescence intensity (a.u.).
With “CCTGCCCGTTTCAGACCTCGGCGCGTGCACATATATACCACGGAGTCACCTAGTGCAG”, the binding signal was 11100 fluorescence intensity (a.u.).
As to “AACGTTTGACCATTTGTTTTATTCAAAATTTTTGTGTAAACGGAGTCACCTAGTGCAG”, the binding signal was 8770 fluorescence intensity (a.u.).
As for “CTCCATCCCTCGTGCGGCTTAGCTCTTTTTTTTCCGAATTCGGAGTCACCTAGTGCAG”, the binding signal was 8730 fluorescence intensity (a.u.).
On to “ATACGTACCCTTTGATGGATGGTTGACCTAGGGTTTTTGTCGGAGTCACCTAGTGCAG”, for which the binding signal is 11100 fluorescence intensity (a.u.).
Turning to “TCTTAAGCGTGTTCATGGGTCTTGTTATGCTCAAGTCAAACGGAGTCACCTAGTGCAG”, the binding signal is 8950 fluorescence intensity (a.u.).
In the case of “CCCAGACTAACTCCACCCATGCCGCCTTTGTTTTCCCCATCGGAGTCACCTAGTGCAG”, the binding signal was 11400 fluorescence intensity (a.u.).
The value for “ACATTGTGCATGGGAGTTTAATTACGGGGATGGGAATTTACGGAGTCACCTAGTGCAG” was 8780 fluorescence intensity (a.u.); that for “CGTACTTCACCGGCTTCGCCATTGGGGCGGCGGTGGCGGGCGGAGTCACCTAGTGCAG” was 10200 fluorescence intensity (a.u.); that for “TCGCGTGTGCCTTTCTCAGTTGCATCTTCCTTGCGGCATCCGGAGTCACCTAGTGCAG” was 12000 fluorescence intensity (a.u.).
As to “ATTCACATCATCTTCAAGATTTTTCACTTAATTCTTAGCACGGAGTCACCTAGTGCAG”, the binding signal was 10400 fluorescence intensity (a.u.).
As for “GGCCCTATCTTGCACCAAATTGCCAACATAAACTCAATCACGGAGTCACCTAGTGCAG”, the binding signal was 9720 fluorescence intensity (a.u.).
The figure for “GTTCTTCCTCTCTGATTGCTCAACGACAAGTGGTCAACACCGGAGTCACCTAGTGCAG” is 8220 fluorescence intensity (a.u.); for “CTCTCTCTCTCTCTCTCTCTCTCTCTCGATGCCGACGCTTCGGAGTCACCTAGTGCAG” it is 11000 fluorescence intensity (a.u.); for “CGTCGCCCGAGAGCGAACGGCCGTCTGCCACGTCATTTTCCGGAGTCACCTAGTGCAG” it is 9570 fluorescence intensity (a.u.).
With “GCCATCCCTAGCATGTCAGTTGACACTGCTGGTCTTCTTCCGGAGTCACCTAGTGCAG”, the binding signal was 8220 fluorescence intensity (a.u.).
Turning to “GAATACGGTCACTCCTGACAGCTTATTTTCGAGGGCCTTTCGGAGTCACCTAGTGCAG”, the binding signal was 8470 fluorescence intensity (a.u.).
Turning to “TGAGGTGGGGCGGTCGGATCTTGCCGGGATGGGCGAGCTTCGGAGTCACCTAGTGCAG”, the binding signal was 10700 fluorescence intensity (a.u.).
The figure for “CTGCGACCATTCTGTTATGCCATCTCCAGATATATTGATTCGGAGTCACCTAGTGCAG” is 12500 fluorescence intensity (a.u.); for “AACTCGCTAACCATTTTTTTTCTTTTTTTTTGATTTGTTACGGAGTCACCTAGTGCAG” it is 10200 fluorescence intensity (a.u.).
Turning to “CACCGCGCCACCGCATCGCCCGTCGTCGGCCGCCCTTTCCCGGAGTCACCTAGTGCAG”, the binding signal is 12000 fluorescence intensity (a.u.).
“CTCAATTCCGCCGTCAAAGTCTTCGATTGATCCGATCTCTCGGAGTCACCTAGTGCAG”: the binding signal was 8430 fluorescence intensity (a.u.).
With “TACTCGATCCTGCCTTCCTTGACCTTTTTTTCTTTTCTTCCGGAGTCACCTAGTGCAG”, the binding signal is 9710 fluorescence intensity (a.u.).
The value for “CACACTCTCCATTTTTACTTGGGCCCCACCTGCCAATGTCCGGAGTCACCTAGTGCAG” was 8850 fluorescence intensity (a.u.).
The value for “TGGTGGTGTGTATGTATCGAGAAAAAAATCATGTACCTTGCGGAGTCACCTAGTGCAG” was 10400 fluorescence intensity (a.u.); that for “TTGAGTAGTTTCCACATGGTTAGATATTGTTTCATTTAACCGGAGTCACCTAGTGCAG” was 8790 fluorescence intensity (a.u.).
The value for “TTTATTTCTTCTGTTTTATAGTCTGATGCATTTTTGTTAACGGAGTCACCTAGTGCAG” was 8540 fluorescence intensity (a.u.).
For the sequence “ACCACCACCACCACGGCGGCGGCCGCGGCCCGCTTCACCTCGGAGTCACCTAGTGCAG”, the binding signal is 8230 fluorescence intensity (a.u.).
The value for “CCATCATCTCTCGATCCATCTCCAGCAAGTTACCTATAAACGGAGTCACCTAGTGCAG” was 9580 fluorescence intensity (a.u.); that for “ATTTCTCATGCCAATTCGGCCCACACCAACCAACCCCGCACGGAGTCACCTAGTGCAG” was 11500 fluorescence intensity (a.u.); that for “CAATTCGTCCTGATCTGGTTGTCCAAGCTTGGGATTCGCCCGGAGTCACCTAGTGCAG” was 8760 fluorescence intensity (a.u.).
For the sequence “TTTTTTATCCGGGCTTGAGGCAACAGACTCTTCCCCTTCGCGGAGTCACCTAGTGCAG”, the binding signal is 8030 fluorescence intensity (a.u.).
For “GAGAGTTCCTGGTCCACCACTTCGCGGATTACTGCGCCGACGGAGTCACCTAGTGCAG”, the binding signal was 11200 fluorescence intensity (a.u.).
“ACACACACTAGCTACTTCTACTTCTATCATACCAAACAAACGGAGTCACCTAGTGCAG”: the binding signal was 10500 fluorescence intensity (a.u.).
The figure for “CTTATCCCCTTGCGTGCCTCATCTTCCTTATCCTCTTGCACGGAGTCACCTAGTGCAG” is 9990 fluorescence intensity (a.u.).

The values are drawn from PMC7819943, “Rice protein-binding microarrays: a tool to detect cis-acting elements near promoter regions in rice”.
